Here are results for three compounds from US6864396B2, “Substituted pentacene semiconductors” (3M Innovative Properties Company, priority 2001, dated 2005).

Data set [1] in a line: Performance testing of organic thin film transistors (OTFTs). To be noted: for Charge-Carrier Mobility: room temperature in air.
Data set [2] is described as follows: Solvent resistance of OTFT semiconductor layer (drops of 2-propanol). To be noted: for Physical changes of semiconductor layer after 2-propanol: on both silicon oxide and aluminum oxide.

With `CCCCCCc1ccc2cc3cc4cc5cc(CCCCCC)ccc5cc4cc3cc2c1` [2,9-dihexylpentacene, 2,9-Dihexylpentacene], in data set [1] (gate dielectric SiO2), the “On/Off Ratio” value is given as 3.15E+03, the “Sub-Threshold Slope” value is given as 4.652 V/decade and the “Threshold Voltage” value is reported as “+1.28 V”. In addition, the “Charge-Carrier Mobility” value in data set [1] (gate dielectric SiO2, averaged) was 0.251 cm^2/Vs.

In the case of `c1ccc2cc3cc4cc5ccccc5cc4cc3cc2c1` [pentacene], the “Physical changes of semiconductor layer after 2-propanol” value in data set [2] is “numerous cracks”. Moreover, in data set [2] (silicon oxide and aluminum oxide), the “OTFT device function after 2-propanol” value is reported as “not functional”. In addition, in data set [1] (gate dielectric Al2O3), the “On/Off Ratio” value is listed as 1.88E+07, the “Sub-Threshold Slope” value was 1.72 V/decade, the “Threshold Voltage” value is recorded as −6.71 V and the “Charge-Carrier Mobility” value was 0.972 cm^2/Vs. In data set [1] (gate dielectric SiO2), the “On/Off Ratio” value is recorded as 1.66E+05, the “Sub-Threshold Slope” value is 4.12 V/decade and the “Threshold Voltage” value is listed as −8.46 V. In addition, in data set [1] (gate dielectric SiO2, averaged), the “Charge-Carrier Mobility” value stood at 0.297 cm^2/Vs.

On to `Cc1ccc2cc3cc4cc5cc(C)ccc5cc4cc3cc2c1` [2,9-dimethylpentacene, 2,9-Dimethylpentacene], for which the entries for the “Mobility after 2-propanol” value in data set [2] (on aluminum oxide) and in data set [2] (on silicon oxide) were “unchanged” and “decreased by a factor of about two”, respectively. Further, the “Physical changes of semiconductor layer after 2-propanol” value in data set [2] is recorded as “appeared unchanged”. Also, the “On/Off Ratio” value in data set [1] (gate dielectric Al2O3) is listed as 3.53E+04; in data set [1] (gate dielectric SiO2) it was 1.93E+05. Further, the “Sub-Threshold Slope” value is recorded as 2.241 V/decade in data set [1] (gate dielectric Al2O3) and 3.318 V/decade in data set [1] (gate dielectric SiO2). Further, the entries for the “Threshold Voltage” value in data set [1] (gate dielectric Al2O3) and in data set [1] (gate dielectric SiO2) were “+0.01 V” and −11.51 V, respectively. The “Charge-Carrier Mobility” value in data set [1] (gate dielectric Al2O3) is 0.680 cm^2/Vs; in data set [1] (gate dielectric SiO2, averaged) it was 0.344 cm^2/Vs.
